The supplement of paper PMC6078165
The reference is the same well before dosing, and untreated signal decays as well.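 Labels refer to human fibroblasts, largely primary: uterine (C12385, HUF), lung (H6013), bone (Hs27A), adrenal (HADF), skin (WS1), plus mammary HMF and breast cancer-associated Hs343T. Cancer lines are basal-like or mesenchymal-like triple-negative breast cancer. The paper counts as hits responses shifting over 3x the replicate standard deviation. The tissue of the other fibroblasts is not given here.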

System: HCC1143
Test: relative JC-1 red fluorescence (viability) vs pre-drug, coculture with fibroblast (fraction); higher = more viable cancer cells
Protocol: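 JC-1 labelled TNBC cells cocultured 1:1 (1,500 cells each) with CellTrace Violet stained primary or stromal fibroblasts in 384-well plates in FluoroBrite medium, treated with one of 42 anticancer drugs at 0.1, 1, 10 or 100 uM. JC-1 red fluorescence (mitochondrial integrity in cancer cells only) was read by plate reader every 8 h for 72 h. Values are normalised to each well's pre-drug value. The stock of one drug was tenfold lower, so its dose labels may be too high.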

C=C1C[C@@H]2[C@H](CC[C@]3(C)C(=O)CC[C@@H]23)[C@@]2(C)C=CC(=O)C=C12 [Exemestane]
relative JC-1 red fluorescence
Settings | 8 h | 16 h | 24 h | 32 h | 40 h | 48 h | 56 h | 64 h | 72 h
0.1 µM, coculture fibroblast: C12385 | 0.8544 | 0.7881 | 0.733 | 0.682 | 0.62 | 0.577 | 0.53 | 0.485 | 0.465
0.1 µM, coculture fibroblast: H6013 | 0.778 | 0.643 | 0.621 | 0.6066 | 0.54 | 0.54 | 0.498 | 0.482 | 0.4273
0.1 µM, coculture fibroblast: H6019 | 0.792 | 0.684 | 0.636 | 0.573 | 0.535 | 0.505 | 0.464 | 0.419 | 0.388
0.1 µM, coculture fibroblast: H6076 | 0.794 | 0.742 | 0.698 | 0.66 | 0.61009 | 0.596 | 0.5719 | 0.549 | 0.5585
0.1 µM, coculture fibroblast: H6231 | 0.799 | 0.832 | 0.713 | 0.565 | 0.593 | 0.551 | 0.503 | 0.459 | 0.427
0.1 µM, coculture fibroblast: HADF | 0.729 | 0.63 | 0.606 | 0.615 | 0.51 | 0.483 | 0.441 | 0.417 | 0.416
0.1 µM, coculture fibroblast: HCFa | 0.785 | 0.666 | 0.625 | 0.597 | 0.508 | 0.477 | 0.429 | 0.392 | 0.363
0.1 µM, coculture fibroblast: HCPF | 0.7869 | 0.811 | 0.7246 | 0.603 | 0.617 | 0.575 | 0.523 | 0.485 | 0.462
0.1 µM, coculture fibroblast: HHSteC | 0.853 | 0.75 | 0.725 | 0.691 | 0.606 | 0.581 | 0.531 | 0.497 | 0.46
0.1 µM, coculture fibroblast: HMF | 0.78 | 0.794 | 0.7202 | 0.617 | 0.624 | 0.581 | 0.531 | 0.499 | 0.471
0.1 µM, coculture fibroblast: HPFa | 0.945 | 0.851 | 0.786 | 0.695 | 0.619 | 0.575 | 0.497 | 0.445 | 0.404
0.1 µM, coculture fibroblast: HUF | 0.873 | 0.759 | 0.704 | 0.616 | 0.562 | 0.53 | 0.481 | 0.444 | 0.414
0.1 µM, coculture fibroblast: Hs5 | 0.8414 | 0.806 | 0.759 | 0.7414 | 0.6708 | 0.637 | 0.599 | 0.574 | 0.57
0.1 µM, coculture fibroblast: Hs27A | 0.707 | 0.618 | 0.577 | 0.592 | 0.463 | 0.444 | 0.395 | 0.356 | 0.326
0.1 µM, coculture fibroblast: Hs343T | 0.827 | 0.8412 | 0.793 | 0.704 | 0.699 | 0.665 | 0.609 | 0.583 | 0.547
0.1 µM, coculture fibroblast: WS1 | 0.857 | 0.762 | 0.718 | 0.657 | 0.591 | 0.558 | 0.518 | 0.49 | 0.47
1 µM, coculture fibroblast: C12385 | 0.867 | 0.775 | 0.72 | 0.652 | 0.584 | 0.536 | 0.498 | 0.455 | 0.433
1 µM, coculture fibroblast: H6013 | 0.742 | 0.666 | 0.6195 | 0.598 | 0.525 | 0.52 | 0.479 | 0.457 | 0.407
1 µM, coculture fibroblast: H6019 | 0.8094 | 0.70586 | 0.6638 | 0.5999 | 0.5458 | 0.505 | 0.457 | 0.401 | 0.365
1 µM, coculture fibroblast: H6076 | 0.786 | 0.742 | 0.7 | 0.6782 | 0.6205 | 0.6011 | 0.5701 | 0.543 | 0.5497
1 µM, coculture fibroblast: H6231 | 0.8078 | 0.789 | 0.692 | 0.604 | 0.592 | 0.562 | 0.521 | 0.477 | 0.452
1 µM, coculture fibroblast: HADF | 0.766 | 0.695 | 0.679 | 0.688 | 0.613 | 0.593 | 0.567 | 0.544 | 0.504
1 µM, coculture fibroblast: HCFa | 0.768 | 0.675 | 0.616 | 0.594 | 0.494 | 0.461 | 0.414 | 0.378 | 0.344
1 µM, coculture fibroblast: HCPF | 0.815 | 0.746 | 0.715 | 0.671 | 0.63428 | 0.6098 | 0.5709 | 0.537 | 0.5226
1 µM, coculture fibroblast: HHSteC | 0.852 | 0.765 | 0.735 | 0.698 | 0.638 | 0.612 | 0.561 | 0.534 | 0.472
1 µM, coculture fibroblast: HMF | 0.792 | 0.7728 | 0.726 | 0.67 | 0.626 | 0.606 | 0.555 | 0.527 | 0.507
1 µM, coculture fibroblast: HPFa | 0.933 | 0.835 | 0.79 | 0.695 | 0.6139 | 0.567 | 0.492 | 0.433 | 0.377
1 µM, coculture fibroblast: HUF | 0.907 | 0.815 | 0.779 | 0.705 | 0.66 | 0.616 | 0.562 | 0.529 | 0.497
1 µM, coculture fibroblast: Hs5 | 0.8479 | 0.906 | 0.843 | 0.765 | 0.719 | 0.675 | 0.63 | 0.6 | 0.565
1 µM, coculture fibroblast: Hs27A | 0.693 | 0.62 | 0.582 | 0.59 | 0.462 | 0.451 | 0.399 | 0.364 | 0.322
1 µM, coculture fibroblast: Hs343T | 0.807 | 0.736 | 0.689 | 0.653 | 0.588 | 0.56 | 0.51 | 0.493 | 0.477
1 µM, coculture fibroblast: WS1 | 0.825 | 0.701 | 0.658 | 0.584 | 0.516 | 0.466 | 0.414 | 0.367 | 0.342
